Data as given in PubChem BioAssay AID1471 (National Center for Advancing Translational Sciences (NCATS), 2008).
The whole screen tested about 230,000 compounds, of which about 310 (0.13%) were called active. The shares of active, inactive and inconclusive entries below differ from those in the screen. Calls follow the shape of the dose curve; as a rule, active = well fitted activation curve with a large enough effect; inconclusive = small, poorly fitted or top-dose-only effect; inactive = no such curve, though single readings can be large or run the other way. A potency beside an inconclusive call is a rough fit, not a confirmed value.

Experiment: qHTS Multiplex Assay to Identify Dual Action Probes in a Cell Model of Huntington: Cytoprotection (ATP); also: nearly all actives have a fitted effect of over 45% in size;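 as to cytoprotection (ATP increase): toxic huntingtin expression switched on by the ecdysone agonist tebufenozide; % of control where 0% means no effect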
Conditions: PC12 HTT-Q103 induced, ATP luminescence, 40 h; cytoprotection (ATP increase): at 56.4 µM (top of the series) unless noted
Method in brief: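 Stable PC12 Q103-GFP cells in serum-supplemented, phenol red-free DMEM; induction by tebufenozide at 100 nM final; compound dose series; cell viability quantified luminescently from ATP.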
Potency is read from the fitted curve at half-maximal effect.

| SMILES | Potency | cytoprotection (ATP increase) |
| --- | --- | --- |
| Cc1cccc(Nc2nc(-c3ccncc3)cs2)c1 | inconclusive: 5620 nM [activator, partial curve] | – |
| Nc1ccn([C@@H]2O[C@H](CO)[C@@H](O)[C@H]2O)c(=O)n1 | inconclusive: 1120 nM [activator, partial curve] | – |
| O=C(CN1CCN(Cc2ccc3c(c2)OCO3)CC1)N1c2ccccc2Sc2ccccc21 | inconclusive: 112 nM [activator, full curve] | – |
| COc1ccc(-c2nc3cnc(N4CCOCC4)nc3n(-c3ccc(OC)cc3)c2=O)cc1 | inactive | – |
| CC(C)CCC[C@@H](C)[C@H]1CC[C@H]2[C@@H]3CC=C4C[C@@H](O)CC[C@]4(C)[C@H]3CC[C@]12C | inconclusive: 562 nM [activator, partial curve, poor fit] | – |
| Cc1c(N(C(=O)c2ccccn2)C2(C(=O)NC3CCCCC3)CCCCC2)c(=O)n(-c2ccccc2)n1C | inactive | – |
| COc1ccc(Nc2ncc(C#N)c(N)n2)c(OC)c1 | – | inactive: 34.3% [at 10 µM] |
| COc1ccc(NS(=O)(=O)c2ccc(OCC(=O)N3CCOCC3)cc2)cc1 | inconclusive: 1000 nM [activator, partial curve] | – |
| COCCCNCC#CCOc1ccc(OC)cc1 | inactive | – |
| COc1ccc(S(=O)(=O)c2cnc3ccccc3n2)cc1 | inconclusive: 3160 nM [activator, single point] | – |
| COc1ccccc1-c1ccc(SCC(=O)NCc2ccc3c(c2)OCO3)nn1 | inconclusive: 562 nM [activator, single point] | – |
| COc1ccc(NC(=O)N2CC[C@@]3(CCCN(C(=O)c4ccncc4)C3)C2)cc1 | active: 2240 nM | – |
| NS(=O)(=O)c1ccc(CNC(=S)Nc2ccc(F)c(Cl)c2)cc1 | inconclusive: 1260 nM [activator, single point] | – |
| CC1=NN(c2ccc(C)c(C)c2)C(=O)/C1=C\C=C\c1ccc([N+](=O)[O-])o1 | inconclusive: 100 nM [activator, full curve, poor fit] | – |
| O=C(CCCc1nc(-c2ccccc2)no1)NCc1cccnc1 | – | inactive: -14.9% [at 0.074 µM] |
| CC[C@]1(C)CC(=O)NC1=O | inconclusive: 50.1 nM [activator, full curve, poor fit] | – |
| CCC1(CC)NC(=O)N(CC(=O)Nc2sc3c(c2C(N)=O)CCC3)C1=O | inactive | – |
| CCOC(=O)CCN1C(=O)[C@H]2[C@@H]3[C@H](O)C=CC(=O)[C@H]3CC[C@H]2C1=O | inconclusive: 126 nM [activator, partial curve, poor fit] | – |
| Fc1ccc(NC(=S)Nc2ccccc2Cl)cc1 | inconclusive: 10000 nM [activator, partial curve] | – |
| CCOC(=O)c1cnc2ccc(OCC)cc2c1NCCN1CCOCC1 | inconclusive: 3550 nM [activator, single point] | – |
| COCCN1Cc2cccc(C(=O)Nc3cccc(C)c3C)c2C1=O | inconclusive: 631 nM [activator, partial curve] | – |

| SMILES | Potency | cytoprotection (ATP increase) |
| --- | --- | --- |
| CCCCC(=O)Nc1nc(C)c(-c2csc(Nc3cc(OC)ccc3OC)n2)s1 | inconclusive: 5010 nM [activator, single point] | – |
| O=C(O)CCC(=O)NNC(=O)c1cccc(Br)c1 | – | inactive: 1.42% [at 10 µM] |
| O=C(NC(Cc1ccc2c(c1)OCO2)C(=O)NC(Cc1ccccc1)C(=O)O)c1ccccc1 (configuration not stated) | inconclusive: 562 nM [activator, full curve, poor fit] | – |
| Cc1oc(C)c(C(=O)Nc2ccc(CC(=O)O)cc2)c1C(=O)Nc1ccc(CC(=O)O)cc1 | inconclusive: 112 nM [activator, full curve, poor fit] | – |
| Cc1cc(Br)ccc1NC(=O)CNC(=O)CSc1n[nH]c(N)n1 | – | inactive: -23.2% [at 0.074 µM] |
| C=CCOC(=O)C(C(C)=O)C(NC(=O)OC)c1cccc(C)c1 (configuration not stated) | inconclusive: 5620 nM [activator, single point] | – |
| Cc1ccc(N(C)C(=O)c2ccc(CNc3c(N4CCC(C)CC4)c(=O)c3=O)cc2)cc1 | – | inactive: 1.22% [at 10 µM] |
| Cc1cc(C)nc(NS(=O)(=O)c2ccc(N/C=C/C(=O)c3ccc(Cl)cc3)cc2)n1 | inconclusive: 5620 nM [activator, single point] | – |
| O=C1S/C(=C/c2ccccc2)C(=O)N1CC(O)Cn1c2ccccc2c2ccccc21 (configuration not stated) | inconclusive: 794 nM [activator, partial curve, poor fit] | – |
| Cc1cc(NC(=O)CCCn2cnc([N+](=O)[O-])n2)no1 | inconclusive: 3980 nM [activator, single point] | – |
| CC(Sc1ccsc1[N+](=O)[O-])C(=O)NCCc1ccc(Cl)cc1 (configuration not stated) | inactive | – |
| CN(C)CCN(C(=O)CCc1ccccc1)c1nc2c(F)cc(F)cc2s1 | inconclusive: 11200 nM [activator, partial curve] | – |
| O=C(CSc1nnc2scc(-c3ccc(Cl)cc3)n12)NCc1ccc2c(c1)OCO2 | – | inactive: -18.3% [at 0.074 µM] |
| O=C(N/N=C\c1ccco1)Nc1cccc(Cl)c1 | – | inactive: 20.9% [at 10 µM] |
| C[C@@](N)(C(=O)O)c1ccc(C(=O)O)cc1 | inconclusive: 15800 nM [activator, full curve, poor fit] | – |
| O/N=C1/CCc2nonc2/C1=N/O | inconclusive: 20000 nM [activator, single point] | – |
| Cc1c(N2C(=O)C3C4C=CC(C5CC45)C3C2=O)c(=O)n(-c2ccccc2)n1C (configuration not stated) | inconclusive: 891 nM [activator, partial curve, poor fit] | – |
| O=C(CCCN1C(=O)/C(=C/c2cccc(Br)c2)SC1=S)Nc1cccnc1 | inconclusive: 891 nM [activator, single point] | – |
| COc1ccccc1CNC(=O)c1ccc(S(=O)(=O)N2CCCC2)cc1 | inactive | – |
| COc1ccccc1-c1cncnc1NCCc1cnc[nH]1 | inconclusive: 15800 nM [activator, partial curve] | – |
| CSc1nnc(CCNC(=O)OC(C)(C)C)o1 | inconclusive: 5620 nM [activator, single point] | – |

Quoted at random: two compounds from above, in no set order.

| SMILES | Potency | cytoprotection (ATP increase) |
| --- | --- | --- |
| Cc1cc(Br)ccc1NC(=O)CNC(=O)CSc1n[nH]c(N)n1 | – | inactive: -23.2% [at 0.074 µM] |
| O=C(NC(Cc1ccc2c(c1)OCO2)C(=O)NC(Cc1ccccc1)C(=O)O)c1ccccc1 (configuration not stated) | inconclusive: 562 nM [activator, full curve, poor fit] | – |
